Measurements reported in PubChem BioAssay AID504793 (Drosophila RNAi Screening Center, 2011)

- Screen: 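Knock-downs allowing continued mitosis even though DNA is damaged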 (primary screen)
- Cells: Drosophila S2R+ cells
- Knock-down reagent: long dsRNA against Drosophila genes, about 0.25 µg dsRNA per well
- Time to read-out: 4 days of dsRNA, then 4 hours of drug before read-out
- Treatment: doxorubicin 0.5 µM for 4 hours to cause double-strand breaks, in cells also given a low, harmless dose of dsRNA against nbs to sensitise the assay
- Read-out: 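Mitotic index as the number of phospho-histone H3-positive cells in each well following doxorubicin, given as raw counts without normalisation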
- Scale: mitotic cells: higher = more cells in mitosis, weaker G2 arrest
- Call rule: 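a call needs confirmation in secondary tests, with other dsRNAs and a check of mitotic timing without damage, not just a high primary count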
- Meaning of the calls: active = confirmed in follow-up tests; inactive = not confirmed
The deposit covers about 23,000 reagents; shown is a random part of those with a known target gene and a result. Of all reagents, 62 (0.27%) were called active. 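Calls come from follow-up tests whose scores are not deposited, so confirmed genes may have low counts here; counts are not normalised per plate.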 Raw values are not corrected between plates. Reagents against one gene are numbered here. Names joined by + are all predicted targets of the reagent. No sequences are given here.

{"predicted target": "Sgf11 (SAGA associated factor 11kDa)", "reagent": 1, "mitotic cells, replicate 1": 6, "Outcome": "inactive"}
{"predicted target": "TMEM216 + CG11760", "reagent": 1, "mitotic cells, replicate 1": 8, "Outcome": "inactive"}
{"predicted target": "CG11379", "reagent": 1, "mitotic cells, replicate 1": 4, "Outcome": "inactive"}
{"predicted target": "Skeletor (retired record)", "reagent": 1, "mitotic cells, replicate 1": 3, "Outcome": "inactive"}
{"predicted target": "Skeletor (retired record)", "reagent": 2, "mitotic cells, replicate 1": 4, "Outcome": "inactive"}
{"predicted target": "CG6345", "reagent": 1, "mitotic cells, replicate 1": 5, "Outcome": "inactive"}
{"predicted target": "fend (forked end)", "reagent": 1, "mitotic cells, replicate 1": 7, "Outcome": "inactive"}
{"predicted target": "fend (forked end)", "reagent": 2, "mitotic cells, replicate 1": 7, "Outcome": "inactive"}
{"predicted target": "CG14805", "reagent": 1, "mitotic cells, replicate 1": 17, "Outcome": "inactive"}
{"predicted target": "Mayo", "reagent": 1, "mitotic cells, replicate 1": 6, "Outcome": "inactive"}
{"predicted target": "vig (vasa intronic gene)", "reagent": 1, "mitotic cells, replicate 1": 5, "Outcome": "inactive"}
{"predicted target": "vig (vasa intronic gene)", "reagent": 2, "mitotic cells, replicate 1": 11, "Outcome": "inactive"}
{"predicted target": "CG16820", "reagent": 1, "mitotic cells, replicate 1": 9, "Outcome": "inactive"}
{"predicted target": "CG5897", "reagent": 1, "mitotic cells, replicate 1": 2, "Outcome": "inactive"}
{"predicted target": "Vap33 (VAMP-associated protein 33kDa)", "reagent": 1, "mitotic cells, replicate 1": 8, "Outcome": "inactive"}
{"predicted target": "CG34235 + CG30058 + CG34312", "reagent": 1, "mitotic cells, replicate 1": 8, "Outcome": "inactive"}
{"predicted target": "inaC (inactivation no afterpotential C)", "reagent": 1, "mitotic cells, replicate 1": 7, "Outcome": "inactive"}
{"predicted target": "CG32695", "reagent": 1, "mitotic cells, replicate 1": 7, "Outcome": "inactive"}
{"predicted target": "CG44838", "reagent": 1, "mitotic cells, replicate 1": 6, "Outcome": "inactive"}
{"predicted target": "CG44838", "reagent": 2, "mitotic cells, replicate 1": 4, "Outcome": "inactive"}
{"predicted target": "CG15814", "reagent": 1, "mitotic cells, replicate 1": 5, "Outcome": "inactive"}
{"predicted target": "CG6574", "reagent": 1, "mitotic cells, replicate 1": 14, "Outcome": "inactive"}
{"predicted target": "CG42284", "reagent": 1, "mitotic cells, replicate 1": 11, "Outcome": "inactive"}
{"predicted target": "CG42284", "reagent": 2, "mitotic cells, replicate 1": 7, "Outcome": "inactive"}
{"predicted target": "CG15212", "reagent": 1, "mitotic cells, replicate 1": 6, "Outcome": "inactive"}
{"predicted target": "CG42812 + CG42811", "reagent": 1, "mitotic cells, replicate 1": 12, "Outcome": "inactive"}
{"predicted target": "CG42812 + CG42811", "reagent": 2, "mitotic cells, replicate 1": 8, "Outcome": "inactive"}
{"predicted target": "Trp1 (Translocation protein 1)", "reagent": 1, "mitotic cells, replicate 1": 4, "Outcome": "inactive"}
{"predicted target": "Trp1 (Translocation protein 1)", "reagent": 2, "mitotic cells, replicate 1": 9, "Outcome": "inactive"}
{"predicted target": "bcd + CR14578", "reagent": 1, "mitotic cells, replicate 1": 5, "Outcome": "inactive"}
{"predicted target": "l(3)72Dr (lethal (3) 72Dr)", "reagent": 1, "mitotic cells, replicate 1": 3, "Outcome": "inactive"}
{"predicted target": "PIG-T (Phosphatidylinositol glycan anchor biosynthesis class T)", "reagent": 1, "mitotic cells, replicate 1": 5, "Outcome": "inactive"}
{"predicted target": "CG16896", "reagent": 1, "mitotic cells, replicate 1": 8, "Outcome": "inactive"}
{"predicted target": "CR31541 (retired record)", "reagent": 1, "mitotic cells, replicate 1": 8, "Outcome": "inactive"}
{"predicted target": "CR31541 (retired record)", "reagent": 2, "mitotic cells, replicate 1": 10, "Outcome": "inactive"}

Part of the list above in another layout:
predicted target,reagent,"mitotic cells, replicate 1",Outcome
CG42284,1,11,inactive
CG42284,2,7,inactive
CG15212,1,6,inactive
CG42812 + CG42811,1,12,inactive
CG42812 + CG42811,2,8,inactive
Trp1 (Translocation protein 1),1,4,inactive
